The whole screen tested about 410,000 compounds, of which about 310 (0.076%) were called active. The inconclusive results got no clear call from the source; some entries with a clear call stand among them for comparison. Calls follow the shape of the dose curve; as a rule, active = well fitted activation curve with a large enough effect; inconclusive = small, poorly fitted or top-dose-only effect, or another doubt; inactive = no such curve, though single readings can be large or run the other way. Where the call is inconclusive, the potency comes from a doubtful curve fit.
What follows are compounds tested against Parathyroid hormone/parathyroid hormone-related peptide receptor (Homo sapiens) (UniProt Q03431) (assay: qHTS for PTHR1 Agonists: Primary Screen). Details: HEK293 GP2 PTHR1 cells, GloSensor cAMP luminescence, 1 h; activation: at 115 µM (top of the series) unless noted; series mostly up to 115 µM.
How it was run: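 HEK-293-derived GP2 cells expressing PTHR1 and a GloSensor cAMP reporter, 3,000/well, plated overnight, given luciferin plus IBMX (each 0.5 mM as added) for 1 h at 37 °C, then compound for 1 h at 37 °C. Luminescence was read after 15 min at room temperature.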
Also: nearly all actives have a fitted effect of over 55% in size.
Potency is read from the fitted curve at half-maximal effect.

Chains of the proteins cited; added tags and fusions are not shown. Lines headed by an entry give the natural chain unless they say otherwise; changes in a name come on top.
UniProt Q03431: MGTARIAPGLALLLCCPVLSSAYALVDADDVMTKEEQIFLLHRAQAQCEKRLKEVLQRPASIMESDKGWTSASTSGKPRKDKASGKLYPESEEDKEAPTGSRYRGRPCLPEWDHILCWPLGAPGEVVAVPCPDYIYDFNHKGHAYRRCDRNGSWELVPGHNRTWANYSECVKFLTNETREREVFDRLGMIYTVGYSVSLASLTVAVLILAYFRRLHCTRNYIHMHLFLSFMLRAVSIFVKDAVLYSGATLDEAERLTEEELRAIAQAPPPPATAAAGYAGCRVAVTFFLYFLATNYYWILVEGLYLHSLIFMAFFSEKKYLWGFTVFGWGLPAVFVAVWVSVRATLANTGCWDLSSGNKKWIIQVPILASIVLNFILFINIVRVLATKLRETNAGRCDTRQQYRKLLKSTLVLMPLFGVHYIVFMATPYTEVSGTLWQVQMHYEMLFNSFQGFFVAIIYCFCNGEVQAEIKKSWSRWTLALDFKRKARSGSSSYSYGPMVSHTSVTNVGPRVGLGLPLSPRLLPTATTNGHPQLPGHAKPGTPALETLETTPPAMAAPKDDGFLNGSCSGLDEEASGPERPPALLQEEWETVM

Row | Structure (SMILES) | Potency | activation | outcome
1 | COC(=O)c1c(-c2ccc(OC)cc2)oc2ccc(-c3ccc(OC)nc3)cc12 | inconclusive: 79.4 µM [activator, partial curve, poor fit] | – | –
2 | Cc1cccc(NC(=O)CSc2nc(-c3cccs3)cc(C(F)(F)F)c2C#N)c1C | – | inconclusive: 36.9% [activator] | –
3 | Cc1ccc(NC(=O)N2CCc3cc(S(=O)(=O)N4CCC(C)CC4)ccc32)cc1 | inconclusive: 5.01 µM [activator, full curve, poor fit] | – | –
4 | O=C(c1cccs1)N(c1ccc(Br)cc1)C1C=CS(=O)(=O)C1 (stereo not given) | inconclusive: 6.31 µM [activator, partial curve] | – | –
5 | O=c1[nH]cnc2c1ncn2C1OC(CO)C(O)C1O (stereo not given) | inconclusive: 15.8 µM [activator, partial curve] | – | –
6 | Cc1cc(SCC(=O)NCC(c2cccs2)N2CCOCC2)c(C)cc1Br (stereo not given) | – | inactive: -45.6% | –
7 | CCc1nnc(NC(=O)CSc2nncc(=O)n2N)s1 | inconclusive: 112 µM [activator, single point] | – | –
8 | COC(=O)c1ccc(C2c3[nH]c4ccccc4c3C[C@H]3C(=O)N(C4CCN(Cc5ccccc5)CC4)CC(=O)N23)cc1 (stereo not given in full) | inconclusive: 141 µM [activator, single point] | – | –
9 | Cc1cccc(C)c1OCc1cc(C(=O)NCc2ccc(Cl)s2)no1 | – | – | inactive
10 | O=C(c1oc(=O)c2ccccc2c1-c1ccccc1)N1CCC(O)CC1 | – | inconclusive: 1.46% [activator] | –
11 | O=C(COc1ccccc1)N(Cc1cccnc1)c1nc2c(F)cccc2s1 | – | inactive: -3.35% | –
12 | N#Cc1c(N)sc(=S)c2c1CCCCC2 | inconclusive: 14.1 µM [activator, partial curve] | – | –
13 | CCOc1ccccc1NC(C)C(=O)Nc1cc(C(F)(F)F)ccc1N1CCOCC1 (stereo not given) | – | inactive: -4.58% | –
14 | Cn1c(=O)cc(OCC(=O)NCc2cccnc2)c2ccccc21 | inconclusive: 2.51 µM [activator, partial curve, poor fit] | – | –
15 | Cc1cc(OCC(=O)NC(Cc2ccc(Cl)cc2)C(=O)O)c2c(C)c(C)c(=O)oc2c1 (stereo not given) | inconclusive: 50.1 µM [activator, single point] | – | –
16 | O=C(CN1C(=O)S/C(=C\c2cccs2)C1=O)Nc1ccc(O)cc1C(=O)O | inconclusive: 50.1 µM [activator, partial curve, poor fit] | – | –
17 | CC(NC(=O)c1ccccc1)C(=O)OCn1nnc2ccccc2c1=O (stereo not given) | inconclusive: 100 µM [activator, single point] | – | –
18 | Cc1ccnc(NC(=O)CNC(=O)c2ccccc2Br)c1 | – | inactive: -0.431% | –
19 | Cc1onc(-c2c(Cl)cccc2Cl)c1C(=O)Nn1cnnc1 | inconclusive: 11.2 µM [activator, partial curve] | – | –
20 | COc1ccc2c3n([n+]([O-])c2c1)CCN=C3c1ccc(C)cc1 | – | inconclusive: 32.3% [activator] | –
21 | COc1ccccc1-n1nnnc1SCC(=O)Nc1ccccn1 | – | – | inactive [at 57.5 µM]
22 | Cn1nc(C(F)(F)F)c(-c2ccc(Br)cc2)c1NC(=O)c1ccco1 | – | inactive: -29.1% | –
23 | CCc1sc2nc(SCC(=O)Nc3cc(C)on3)n(-c3cccc(OC)c3)c(=O)c2c1C | – | inactive: 11.7% | –

An excerpt of these results, tab-delimited:
Row	Structure (SMILES)	Potency	activation	outcome
10	O=C(c1oc(=O)c2ccccc2c1-c1ccccc1)N1CCC(O)CC1	–	inconclusive: 1.46% [activator]	–
20	COc1ccc2c3n([n+]([O-])c2c1)CCN=C3c1ccc(C)cc1	–	inconclusive: 32.3% [activator]	–

Continuation:

Row | Structure (SMILES) | Potency | activation | outcome
24 | CCCCCCc1nc2ccccc2c(=O)n1N | inconclusive: 8.91 µM [activator, partial curve, poor fit] | – | –
25 | Cc1ccccc1NC(=O)c1cc2c(-c3ccccc3)nn(-c3ccccc3)c2s1 | – | inactive: -18.7% | –
26 | COc1cccc(CC(CC(=O)O)C(=O)Nc2cc(C)ccc2C)c1 (stereo not given) | inconclusive: 112 µM [activator, single point] | – | –
27 | COc1ccc2ccccc2c1/C=N/NC(=S)NCCN1CCOCC1 | – | inconclusive: -38.9% [activator] | –
28 | CCN1/C(=C(\O)c2ccccc2)C(=O)c2ccccc2S1(=O)=O | – | inactive: -16.5% | –
29 | CCc1ccc(NC(=O)CCc2c(C)nc3nc(-c4cc(OC)cc(OC)c4)nn3c2C)cc1 | inconclusive: 89.1 µM [activator, partial curve, poor fit] | – | –
30 | CC(=O)Nc1ccc(S(=O)(=O)N(C)CC(=O)OCC(=O)Nc2cc(C)on2)cc1 | inconclusive: 141 µM [activator, single point] | – | –
31 | CCn1c(COc2ccccc2C)nnc1SCC(=O)N1CCC(C)CC1 | inconclusive: 39.8 µM [activator, single point] | – | –
32 | COc1ccc(C(CNC(=O)c2ccco2)N2CCCC2)cc1 (stereo not given) | inconclusive: 39.8 µM [activator, partial curve, poor fit] | – | –
33 | CC(C)OC(=O)c1cccc(C(=O)Oc2ccccc2)n1 | inconclusive: 7.94 µM [activator, partial curve, poor fit] | – | –
34 | CC(=O)Nc1ccc(N=NC2C(=O)N(C(N)=S)N=C2C)cc1 (stereo not given) | – | inactive: -2.01% | –
35 | COc1ccc(Cn2nnnc2C(c2ccccn2)N2CCN(c3cc(Cl)ccc3C)CC2)cc1 (stereo not given) | – | inactive: 2.48% [at 57.5 µM] | –
36 | CC(=O)c1cccc(NC(=O)Nc2c(C)n(C)n(-c3ccccc3)c2=O)c1 | – | inconclusive: 30.6% [activator] | –
37 | CC(C)C[C@@H](CN1CCC[C@@H]1CN1C(=O)C(=O)NC[C@@H]1Cc1ccccc1)N1C[C@H](Cc2ccc(O)cc2)N(CCc2ccccc2)C(=O)C1=O | inconclusive: 112 µM [activator, partial curve, poor fit] | – | –
38 | Cc1ccc(S(=O)(=O)C[C@@H]2OC[C@H](C(C)C)N2S(=O)(=O)c2ccc(C)cc2)cc1 | – | inactive: -3.87% | –
39 | COc1ccc(S(=O)(=O)c2c(Nc3c(C)cccc3C)sc(C(=O)c3ccc(F)cc3)c2N)cc1 | – | inactive: -0.73% | –
40 | CN(Cc1cn(-c2ccccc2)nc1-c1ccc(F)cc1)C(=O)CCC(=O)O | – | inconclusive: 37.5% [activator] | –
41 | OC(CNC1Cc2ccccc2C1)COc1ccc(F)cc1 (stereo not given) | inconclusive: 79.4 µM [activator, partial curve, poor fit] | – | –
42 | CC(Cc1cccs1)NC(=O)Nc1cccc(Cl)c1 (stereo not given) | – | inactive: -37% | –
43 | COc1cccc(C2c3[nH]c4ccccc4c3C[C@H]3C(=O)N(CCCOC(C)C)CC(=O)N23)c1 (stereo not given in full) | – | – | inactive
44 | Cc1cc(Nc2ccc3ccccc3c2)n2ncnc2n1 | – | inconclusive: 33% [activator] [at 57.5 µM] | –
45 | CCOc1ccc(NCc2nnc(SCC(=O)Nc3cc(C)on3)n2-c2ccccc2OC)cc1 | inconclusive: 28.2 µM [activator, single point] | – | –
